The values below come from US6713280.

Protein sequences, listed by entry. Tags and fused reporters are not part of them. Residues count along the entry.
UniProt P10415, residues 1-205: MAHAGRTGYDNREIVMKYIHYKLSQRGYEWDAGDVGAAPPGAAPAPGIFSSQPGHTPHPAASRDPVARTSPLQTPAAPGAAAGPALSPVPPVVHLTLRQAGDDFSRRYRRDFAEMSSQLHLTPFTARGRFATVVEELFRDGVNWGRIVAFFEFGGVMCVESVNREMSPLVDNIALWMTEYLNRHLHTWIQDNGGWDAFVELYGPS

The target in the experiment is GST-Bcl-2 protein (UniProt P10415). Kind of experiment: fluorescence polarization competition with Flu-SEQ ID NO:30, FIG. 4.

Results are given in words; binding and its absence hold for the method and conditions named. Some entries that bind do so weakly or less than the wild type.

Consider KNLWAAQRYGRELRRMSDEFEGSFKGL (CH3(CH2)8C(O)- (decanoyl) group on the N-terminus of the peptide) [decyl-SEQ ID NO:56 (CH3(CH2)8COHN-…)], for which the binding entry is “binds”.
